These results are taken from paper PMC11414581.

By UniProt entry, the sequences of proteins in these tests, tags left out. Where a name states a change or a piece, a line headed by the entry shows the natural chain unless it says otherwise. Chains listed by the source or under a name are the forms on record and can include a tag or linker. Residues count along the entry.
UniProt Q9H6L5: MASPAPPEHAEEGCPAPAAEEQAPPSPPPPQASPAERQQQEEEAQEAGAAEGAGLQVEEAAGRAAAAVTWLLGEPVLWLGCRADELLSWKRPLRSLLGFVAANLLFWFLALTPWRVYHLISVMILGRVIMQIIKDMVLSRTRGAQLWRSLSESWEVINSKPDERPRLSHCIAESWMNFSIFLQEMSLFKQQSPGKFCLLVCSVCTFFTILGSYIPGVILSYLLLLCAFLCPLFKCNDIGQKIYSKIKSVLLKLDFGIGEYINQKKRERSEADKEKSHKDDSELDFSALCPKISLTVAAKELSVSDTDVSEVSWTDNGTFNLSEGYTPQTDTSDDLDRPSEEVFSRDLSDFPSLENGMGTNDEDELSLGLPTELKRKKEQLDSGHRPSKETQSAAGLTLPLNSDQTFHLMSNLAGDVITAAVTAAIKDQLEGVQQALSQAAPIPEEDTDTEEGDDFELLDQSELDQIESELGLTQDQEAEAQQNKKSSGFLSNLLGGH
FLAG-FAM134B-1 ΔC4: residues 1-431 of Q9H6L5
FLAG-FAM134B-1 ΔC1 (Q9H6L5, form named): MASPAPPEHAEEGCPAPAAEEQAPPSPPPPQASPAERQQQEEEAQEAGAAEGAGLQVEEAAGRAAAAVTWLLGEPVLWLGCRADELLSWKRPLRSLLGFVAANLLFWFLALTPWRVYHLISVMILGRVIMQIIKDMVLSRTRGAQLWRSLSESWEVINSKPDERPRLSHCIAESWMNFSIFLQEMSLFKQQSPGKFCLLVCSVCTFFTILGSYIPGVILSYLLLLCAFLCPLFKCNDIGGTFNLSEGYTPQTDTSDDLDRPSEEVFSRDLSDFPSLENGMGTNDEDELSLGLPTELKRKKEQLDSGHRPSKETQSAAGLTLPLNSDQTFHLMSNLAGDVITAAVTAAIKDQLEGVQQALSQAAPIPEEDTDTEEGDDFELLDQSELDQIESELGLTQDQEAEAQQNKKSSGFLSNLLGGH
FLAG-FAM134B-1 ΔC2 (Q9H6L5, form named): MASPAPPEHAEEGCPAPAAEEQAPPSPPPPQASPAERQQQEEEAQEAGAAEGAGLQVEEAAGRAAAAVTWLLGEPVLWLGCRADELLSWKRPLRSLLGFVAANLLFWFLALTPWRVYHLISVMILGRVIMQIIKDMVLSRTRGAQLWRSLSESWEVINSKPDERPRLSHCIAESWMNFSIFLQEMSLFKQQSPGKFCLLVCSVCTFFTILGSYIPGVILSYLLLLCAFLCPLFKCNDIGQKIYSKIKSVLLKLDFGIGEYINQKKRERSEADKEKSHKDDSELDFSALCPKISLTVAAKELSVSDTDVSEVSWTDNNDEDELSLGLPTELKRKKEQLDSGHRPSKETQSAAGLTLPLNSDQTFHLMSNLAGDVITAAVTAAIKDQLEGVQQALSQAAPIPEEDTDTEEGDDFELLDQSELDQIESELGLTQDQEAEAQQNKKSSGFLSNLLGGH
FLAG-FAM134B-1 ΔC3 (Q9H6L5, form named): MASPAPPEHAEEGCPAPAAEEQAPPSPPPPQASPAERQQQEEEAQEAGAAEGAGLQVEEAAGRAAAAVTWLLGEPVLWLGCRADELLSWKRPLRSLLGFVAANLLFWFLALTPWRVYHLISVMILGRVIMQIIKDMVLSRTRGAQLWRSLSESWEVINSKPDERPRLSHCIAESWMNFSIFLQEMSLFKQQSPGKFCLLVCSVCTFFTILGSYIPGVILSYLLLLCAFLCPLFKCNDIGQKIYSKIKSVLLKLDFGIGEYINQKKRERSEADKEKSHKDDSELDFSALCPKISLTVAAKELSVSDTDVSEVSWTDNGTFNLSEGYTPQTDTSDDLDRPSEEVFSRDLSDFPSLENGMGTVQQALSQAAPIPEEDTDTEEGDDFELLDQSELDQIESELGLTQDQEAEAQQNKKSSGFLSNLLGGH
STIM1 ΔC1-mCherry (Q13586, residues 23-474): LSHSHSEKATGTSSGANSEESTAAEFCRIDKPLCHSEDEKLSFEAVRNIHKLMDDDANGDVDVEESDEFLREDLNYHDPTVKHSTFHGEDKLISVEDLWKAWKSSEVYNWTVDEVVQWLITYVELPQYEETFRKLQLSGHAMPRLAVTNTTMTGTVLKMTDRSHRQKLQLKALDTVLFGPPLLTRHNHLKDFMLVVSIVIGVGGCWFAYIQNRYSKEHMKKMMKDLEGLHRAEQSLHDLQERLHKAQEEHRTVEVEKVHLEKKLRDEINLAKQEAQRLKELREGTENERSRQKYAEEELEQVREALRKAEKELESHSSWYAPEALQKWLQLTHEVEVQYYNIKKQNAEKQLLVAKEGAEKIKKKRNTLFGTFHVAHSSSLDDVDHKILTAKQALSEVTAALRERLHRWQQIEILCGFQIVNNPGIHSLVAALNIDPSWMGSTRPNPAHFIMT
STIM1 ΔC2-mCherry (Q13586, residues 23-343): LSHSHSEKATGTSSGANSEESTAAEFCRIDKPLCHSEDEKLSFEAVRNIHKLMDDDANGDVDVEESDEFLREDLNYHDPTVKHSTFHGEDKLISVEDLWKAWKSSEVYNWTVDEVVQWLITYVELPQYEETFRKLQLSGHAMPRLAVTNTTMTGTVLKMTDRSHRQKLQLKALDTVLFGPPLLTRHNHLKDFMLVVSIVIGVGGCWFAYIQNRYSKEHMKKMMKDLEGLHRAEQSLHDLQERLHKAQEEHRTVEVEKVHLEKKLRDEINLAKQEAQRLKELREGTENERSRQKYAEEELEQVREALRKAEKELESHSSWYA
UniProt Q9C0E8: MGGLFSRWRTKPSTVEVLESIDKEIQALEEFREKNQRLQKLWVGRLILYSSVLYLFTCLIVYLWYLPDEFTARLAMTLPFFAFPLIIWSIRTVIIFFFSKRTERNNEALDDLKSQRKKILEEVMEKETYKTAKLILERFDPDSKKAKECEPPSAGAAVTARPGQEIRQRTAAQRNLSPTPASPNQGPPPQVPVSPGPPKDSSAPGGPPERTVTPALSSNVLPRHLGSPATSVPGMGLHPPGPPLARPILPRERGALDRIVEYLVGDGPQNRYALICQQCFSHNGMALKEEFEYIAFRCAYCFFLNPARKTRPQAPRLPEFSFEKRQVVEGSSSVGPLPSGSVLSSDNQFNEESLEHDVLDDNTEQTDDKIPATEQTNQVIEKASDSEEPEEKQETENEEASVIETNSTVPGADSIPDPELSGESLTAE

Common to all, as to test: co-IP; HEK293 cells cotransfected for 48 h; lysed in buffer A (50 mM Hepes-NaOH pH 7.5, 120 mM NaCl, 1 mM EDTA, 0.1 mM ZnSO4, 1% NP-40); anti-FLAG M2 affinity gel, 4 °C, 3 h; immunoblot with anti-mCherry pAb and anti-FLAG pAb
Assay [1] deals with FLAG-FAM134B-1 WT (human) (UniProt Q9H6L5).
For assay [2], the target named is FLAG-FAM134B-1 ΔC1 (human) (UniProt Q9H6L5).
Assay [3] concerns the target FLAG-FAM134B-1 ΔC2 (human) (UniProt Q9H6L5).
Assay [4] deals with FLAG-FAM134B-1 ΔC4 (human) (UniProt Q9H6L5).
In assay [5] the target is FLAG-FAM134B-1 ΔC3 (human) (UniProt Q9H6L5).

Results are given in words; binding and its absence hold for the method and conditions named. In cells and extracts the contact can be indirect. Some results given as binding are weak or reduced against the parent protein; the word gives no strength.

As for “STIM1 ΔC1-mCherry (from UniProt Q13586-2 23-474) (domain or fragment)”, the binding result in assay [1] is “binds”.
Lnp-mCherry (from UniProt Q9C0E8 1-428): the binding entry in assay [2], in assay [3], in assay [1], in assay [4] and in assay [5] was “binds” in each case.
As for “STIM1 ΔC2-mCherry (from UniProt Q13586-2 23-343) (domain or fragment)”, the binding result in assay [1] is listed as “binds”.
